Reference: doi:10.1101/2024.01.10.574961
Results are given in words; binding and its absence hold for the method and conditions named. Some entries that bind do so weakly or less than the wild type. Values belong to the binder of their own block, whether it stands above or below them.

Target: T1, pGBK-rgf1 (pRZ97) (S. pombe) (UniProt Q9Y7U6)
T1 sequence: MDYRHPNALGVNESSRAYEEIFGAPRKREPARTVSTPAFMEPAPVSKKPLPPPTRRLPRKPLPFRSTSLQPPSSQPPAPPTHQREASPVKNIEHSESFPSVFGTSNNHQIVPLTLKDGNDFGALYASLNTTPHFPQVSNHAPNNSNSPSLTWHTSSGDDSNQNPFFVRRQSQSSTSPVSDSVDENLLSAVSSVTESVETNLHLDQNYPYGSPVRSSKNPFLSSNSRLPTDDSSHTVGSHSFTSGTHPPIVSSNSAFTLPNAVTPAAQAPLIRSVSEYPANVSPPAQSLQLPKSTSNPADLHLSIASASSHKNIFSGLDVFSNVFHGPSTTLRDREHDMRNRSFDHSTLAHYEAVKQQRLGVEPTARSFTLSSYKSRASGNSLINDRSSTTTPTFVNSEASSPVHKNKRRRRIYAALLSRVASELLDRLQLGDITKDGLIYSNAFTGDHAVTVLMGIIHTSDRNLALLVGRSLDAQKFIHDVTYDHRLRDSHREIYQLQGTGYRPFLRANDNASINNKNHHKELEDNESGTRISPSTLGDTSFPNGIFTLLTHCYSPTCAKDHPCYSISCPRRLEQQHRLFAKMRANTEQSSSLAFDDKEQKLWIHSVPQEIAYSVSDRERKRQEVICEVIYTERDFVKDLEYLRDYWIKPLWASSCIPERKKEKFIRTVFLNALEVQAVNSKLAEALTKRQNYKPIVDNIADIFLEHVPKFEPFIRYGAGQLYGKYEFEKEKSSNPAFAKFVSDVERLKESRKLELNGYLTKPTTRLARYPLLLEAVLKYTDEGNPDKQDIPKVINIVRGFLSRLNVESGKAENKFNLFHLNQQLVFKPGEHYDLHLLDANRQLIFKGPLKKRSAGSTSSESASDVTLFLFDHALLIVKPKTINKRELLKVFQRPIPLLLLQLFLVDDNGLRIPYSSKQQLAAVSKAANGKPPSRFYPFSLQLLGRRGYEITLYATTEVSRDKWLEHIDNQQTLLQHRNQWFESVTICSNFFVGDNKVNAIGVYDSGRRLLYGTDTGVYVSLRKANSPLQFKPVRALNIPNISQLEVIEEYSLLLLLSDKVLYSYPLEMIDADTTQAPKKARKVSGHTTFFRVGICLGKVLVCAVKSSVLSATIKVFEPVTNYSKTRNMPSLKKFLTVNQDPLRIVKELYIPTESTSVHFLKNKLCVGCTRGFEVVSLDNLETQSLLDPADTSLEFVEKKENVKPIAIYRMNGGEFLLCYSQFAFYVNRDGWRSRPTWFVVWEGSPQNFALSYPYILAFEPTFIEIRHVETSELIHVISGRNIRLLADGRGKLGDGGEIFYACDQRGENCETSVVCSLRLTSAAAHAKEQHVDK
Assay: two-hybrid

binding: no binding
B1: pGAD-tea1 (pGR135) (protein, UniProt P87061 1-1147)
chain: MSFLFKRNKGSAHKPTKPNFSKTSTTPSTSQLKHSHESNVKMSTSTVTEHRKKPTGSGSHITASPWSKLTVRGSSNVLPRYSHASHLYAEGGQEIYIFGGVASDSQPKNDLWVLNLATSQFTSLRSLGETPSPRLGHASILIGNAFIVFGGLTNHDVADRQDNSLYLLNTSSLVWQKANASGARPSGRYGHTISCLGSKICLFGGRLLDYYFNDLVCFDLNNLNTSDSRWELASVVNDPPPARAGHVAFTFSDKLYIFGGTDGANFFNDLWCYHPKQSAWSKVETFGVAPNPRAGHAASVVEGILYVFGGRASDGTFLNDLYAFRLSSKHWYKLSDLPFTPSPRSSHTLSCSGLTLVLIGGKQGKGASDSNVYMLDTSRFRLGSVPTTSGRQRNTSFFSNSTGNTNPSAFNGLLTSSRIPSYNGSKVRSTSHPSRQQYIGSSNSRFNTRHQTISTPVSGRASNDLPSPVVPTRSNSSSILQPSYNLNSHSSDRRNTNDDDQSSLNSQQLSNQAKAQGEVSPTLSFVPSSHSMEQGNGSVASANNAQSEAATRSINSISEVSEVRFPEQSSVKTVDERKSLDGRITSVTLETLVEKYSELSKQQIVEWFKSKLYEILRDSASKIDSLTEKLKVANAEKNAALCEAALEKVPLAKHNKLSDGTFSTPDKENVQSTNDAHIMQENFSLHKALEVMRETSSDLDKQLKDATASQKELIVQTSSFQKELVEERERHNAISKRLQEIESLYRDRELLVTNLEDQLVDQTVTINKFAFERDQFRERSMGFENTIKDLTRKMEATDMLNVSLHESLRSVQTENSELVTEMALLKAELVKKQAIIDANANIYDKLTADHTNYETVSADINQNLKETLDKLLNGSSDFKNNEIELLHDQIRITNAKLEKREKLINASKYIEDTLRSEIQEAAEKVSNLEFSNFNLKEENSNMQLQLMKALEQRNTGAKQLVNLRMQLSTATSELDMLKLKLRTTALALEESPDDYSDILSILRADMSPFHDLHKQCGVLIDTLNGVKRGFGIFEKKFTDYHKFLENISDKLKSEEDTSLETPIHENQSIQSDQIKEVGEVLSAIKSLSDSVMLLKNQIDDLAKEKLPLSSSDDEKVNIKEKTDFMKLLVKSGLSNPPAKEPVHDNEN

binding: binds
B2: pGAD-tea4 (pGR106) (protein, UniProt O60132 1-821)
chain: MLHMNSASSADSMEIMESHFDPTQQNDSTIIESRYSPEEYLEQSFEIQRIISGENSEPQTVASQEISDSQEEDTTLTSSQFEDCGTEYNEVVEDDEFRSEDEDDFMDEEEEYALYEAELSSSPSIHEEVIDCNFVHAIRGFEATVEGQVDATKGDMMILLDDSNSYWWLVKMCKNLAIGYLPAEYIETPSERLARLNKYKNSETSNSQQSVTLPPLDIVEKTLEAPSPNFRIKRVTFTCSSNSSDDEMDSENDYEAMVNRTVAENGLEIEFSDSSDSSLSAEYRSESEDHVTDSPAYVDLTELEGGFNQFNSTSFQSTSPLGLEIVETEINGSSTTADSKNSHSPYSKFSSAYPDAENSNISKINISIAGNKELYGNATQSDPSLYSTWIANKHKTASSATVDSPLRRSLSVDAMQSNASFSSYSSTSNTDKSLRPSSYSAVSESSNFTHDVSRDNKEISLNAPKSIIVSQSDSFDTSNVTQDAPNDVEKEPISGQMPNNLSVQSLKQLEVYPIRHSVSIEMPSEKLLSPRLYSSSTPSSPTKGFQKDDEEDSENRKQADKVELSPSSLLRQMSLPVDSSSQSDAQCTTSSVYITAERKAFSQSSIDLSTLSNHHVNNEINRRSFAGGFTSLADELSEMRELLHESPAPLECNEEMVIPTPELDASSAIPSSSISHDEDLLPRKNTEESTSSSSFSSLITSPASLQYDENPFKQSVVAELNNNSSSVPFVDSAHASDIHAYDNDHVSTKNKEFNRRLREFILDPDSLSGLYWSVKSAGVRASRRVSRNIEGESVSSDLDDIFANVLKGLSDEMASLLNTNR
